± gives the uncertainty stated by the source. Many of these values have a large error.
Assay: self-splicing fitness, log relative to wild type (ln ratio); higher = more splicing; Tetrahymena group I intron in knt gene, E. coli kanamycin selection, DiMSum; sequences stand for … in CUCUCU…GGAGGGAAAAGUUAUCAGGCAUGCACCUGGUAGCUAGUCUUUAAACCAAUAGAUUGCAUCGGUUUAAAAGGCAAGACCGUCAAAUUGCGGGAAAGGGGUCAACAGCCGUUCAGUACCAAGUCUCAGGGGAAACUUUGAGAUGGCCUUGCAAAGGGUAUGGUAAUAAGCUGACGGACAUGGUCCUAACCACGCAGCCAAGUCCUAAGUCAACAGAUCUUCUGUUGAUAUGGAUGCAGUUCACAGACUAAAUGUCGGUCGGGGAAGAUGUAUUCUUCUCAUAAGAUAUAGUCGGACCUCUCCUUAAUGGGAGCUAGCGGAUGAAGUGAUGCAACACUGGAGCCGCUGGGAACUAAUUUGUAUGCGAAAGUAUAUUGAUUAGUUUUGGAGUACUCGUGGUCG
Summary of the method: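 DiMSum derived fitness as the error-weighted combination of fold changes across replicates, kanamycin versus no kanamycin, normalised to wild type. E. coli BL21(DE3) held the library, which randomised all eight P1ex-region intron nucleotides within the knt kanamycin-resistance gene on pET-22b(+). Six replicate transformations grew overnight at 37°C or 30°C on LB agar with or without 25 μg/mL kanamycin, also containing 100 μg/mL carbenicillin, 50 μM IPTG and 0.2% rhamnose, and pooled colonies were amplicon-sequenced on an Illumina HiSeq 2500.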

Sequence	self-splicing fitness (ln) (30 °C)	self-splicing fitness (ln) (37 °C)
AGGAAGCAAUAUUACGAAGC	-3.34 ± 1	-1.1 ± 0.92
UCGGAGCAAUAUUACGAGAC	-0.828 ± 0.82	-1.49 ± 0.71
UGAGAGCAAUAUUACGUUGA	-3.63 ± 0.52	–
GGUGAGCAAUAUUACGCUCC	–	-2.08 ± 0.81
AGGGAGCAAUAUUACGCAUU	–	-2.59 ± 0.54
UAAAAGCAAUAUUACGCUUC	-5.68 ± 0.5	–
UUUGAGCAAUAUUACGAAUU	-2.47 ± 0.23	-2.01 ± 0.3
GAGGAGCAAUAUUACGGUGG	–	-2.76 ± 0.74
GGUCAGCAAUAUUACGAGCA	–	-0.442 ± 0.51
UAUGAGCAAUAUUACGAGGC	–	-2.45 ± 0.55
AUGGAGCAAUAUUACGCUAC	-1.64 ± 0.6	–
AGUAAGCAAUAUUACGUAAC	–	-2.48 ± 0.54
CUGAAGCAAUAUUACGUAAC	-4.06 ± 0.51	–
UGCGAGCAAUAUUACGCUGG	-2.62 ± 0.62	-2.66 ± 0.62
AGCUAGCAAUAUUACGACCU	0.703 ± 0.17	-0.166 ± 0.18
CUUGAGCAAUAUUACGACCC	–	-1.39 ± 1.2
GCCGAGCAAUAUUACGGCCG	-3.96 ± 0.61	–
CUUUAGCAAUAUUACGUCCC	-1.12 ± 0.76	–
AAGGAGCAAUAUUACGGAGC	–	-2.76 ± 1.1
AAAGAGCAAUAUUACGCAGC	-4.73 ± 1	–
CGAUAGCAAUAUUACGAUGU	-0.22 ± 0.14	-0.614 ± 0.16
UGAGAGCAAUAUUACGAGCU	-3.28 ± 0.53	–
UUUUAGCAAUAUUACGGUGU	–	-2.05 ± 0.5
GUAGAGCAAUAUUACGCUCU	–	-0.123 ± 0.57
GGAGAGCAAUAUUACGGUAA	-2.76 ± 0.58	-2.97 ± 0.74

Sequence	self-splicing fitness (ln) (30 °C)	self-splicing fitness (ln) (37 °C)
ACAGAGCAAUAUUACGCAGA	-3.37 ± 0.6	–
CUUAAGCAAUAUUACGGGCG	-0.789 ± 0.13	-0.48 ± 0.14
GUGCAGCAAUAUUACGAGAA	-3.31 ± 0.74	–
CACGAGCAAUAUUACGACUC	-3.64 ± 1	–
GAGUAGCAAUAUUACGCAAU	-4.22 ± 0.59	–
GGUCAGCAAUAUUACGCUUA	0.0476 ± 0.059	0.296 ± 0.078
GGUUAGCAAUAUUACGUGCC	–	-1.51 ± 0.5
GCAUAGCAAUAUUACGCGCU	-3.87 ± 0.53	–
CUGUAGCAAUAUUACGAGAA	-1.9 ± 0.52	–
CUAAAGCAAUAUUACGAUAC	-5.29 ± 0.51	–
GCACAGCAAUAUUACGGACA	-1.02 ± 0.1	-0.584 ± 0.11
GCAAAGCAAUAUUACGUGAU	-0.863 ± 0.053	-0.973 ± 0.075
GCUAAGCAAUAUUACGAUCA	-1.29 ± 0.11	-0.823 ± 0.093
GAUUAGCAAUAUUACGGGUC	-4.65 ± 0.52	–
CGAGAGCAAUAUUACGUCGA	-2.37 ± 0.64	-1.9 ± 0.66
CUACAGCAAUAUUACGACCC	-3.28 ± 0.55	-1.61 ± 0.52
UCUAAGCAAUAUUACGAAAU	–	-3.95 ± 0.72
UCUUAGCAAUAUUACGUGGC	-4.8 ± 1	–
UAUUAGCAAUAUUACGAGGC	-1.34 ± 0.73	–
CUUUAGCAAUAUUACGUUUC	-5.38 ± 0.51	–
GAUGAGCAAUAUUACGGAAG	–	-1.47 ± 0.51
AGUUAGCAAUAUUACGUGGC	-1.99 ± 0.53	-1.74 ± 0.52
UAGUAGCAAUAUUACGCUGC	-3.1 ± 0.65	-1.28 ± 0.51
GCGAAGCAAUAUUACGCCUC	–	-2.7 ± 0.54
CCCGAGCAAUAUUACGGAAU	-4.53 ± 0.51	-3.05 ± 0.53

Sequence	self-splicing fitness (ln) (30 °C)	self-splicing fitness (ln) (37 °C)
GUGUAGCAAUAUUACGCAUC	-4.35 ± 0.51	–
CGUCAGCAAUAUUACGAAGC	-3.69 ± 0.75	–
CAGUAGCAAUAUUACGUUCC	-3.75 ± 1	–
CUGGAGCAAUAUUACGUCUU	–	-3.7 ± 0.59
CAGAAGCAAUAUUACGUAUC	-5.56 ± 0.71	–
UUUGAGCAAUAUUACGGAAU	-1.39 ± 0.76	-1.91 ± 0.6
UCGUAGCAAUAUUACGCUAA	-3.45 ± 0.6	–
CCGUAGCAAUAUUACGAUAC	–	-4.52 ± 1
ACGUAGCAAUAUUACGCCGC	–	-3.46 ± 0.73
GAAAAGCAAUAUUACGACCG	-0.942 ± 0.14	-0.33 ± 0.17
GGCUAGCAAUAUUACGAGGC	–	-0.105 ± 0.56
GUGGAGCAAUAUUACGAAAA	–	-2.29 ± 0.64
UGCAAGCAAUAUUACGUCAC	-2.88 ± 0.47	-2.27 ± 0.24
CCAGAGCAAUAUUACGCGAC	-2.94 ± 0.54	-3.98 ± 0.52
GUUUAGCAAUAUUACGAUAA	-1.52 ± 0.51	-0.197 ± 0.53
AUUUAGCAAUAUUACGGGGC	–	-2.08 ± 0.51
CUCGAGCAAUAUUACGAUGU	-4.86 ± 0.71	–
GAUUAGCAAUAUUACGACGG	-4.45 ± 1	–
CCUUAGCAAUAUUACGCUGA	–	-3.06 ± 0.53
GUCUAGCAAUAUUACGAUUG	-4.37 ± 0.51	-2.14 ± 0.26
UCUUAGCAAUAUUACGGGAA	-2.8 ± 0.57	–
GGUGAGCAAUAUUACGCCAA	-1.12 ± 0.54	-1.73 ± 0.87
UAUAAGCAAUAUUACGACCC	-3.7 ± 1.1	-1.58 ± 0.59
UGGCAGCAAUAUUACGGGCC	-3.78 ± 0.6	–
CAUCAGCAAUAUUACGUCAC	-3.06 ± 0.15	-2.68 ± 0.23

Sequence	self-splicing fitness (ln) (30 °C)	self-splicing fitness (ln) (37 °C)
GAUAAGCAAUAUUACGUCAC	-4.49 ± 1	–
UAAGAGCAAUAUUACGAAGA	-3.09 ± 0.54	–
GGCCAGCAAUAUUACGAAGG	-3.63 ± 0.52	–
CUUAAGCAAUAUUACGCCUC	–	-1.6 ± 0.69
CCCAAGCAAUAUUACGUCCC	–	-3.05 ± 0.53
CGUUAGCAAUAUUACGACCG	-1.13 ± 0.14	-0.193 ± 0.2
GGAGAGCAAUAUUACGAAUA	–	-2.81 ± 0.55
UGGAAGCAAUAUUACGCAAG	-5.31 ± 1	–
AUCGAGCAAUAUUACGAUGA	-3.37 ± 0.25	-1.86 ± 0.16
CUAUAGCAAUAUUACGCCUA	-1.39 ± 0.63	-2.19 ± 0.55
GUGGAGCAAUAUUACGUCUA	–	-2.65 ± 0.61
CAAGAGCAAUAUUACGGACU	-3.3 ± 0.74	–
UGUGAGCAAUAUUACGUCCC	–	-1.03 ± 0.66
GUCAAGCAAUAUUACGCCCU	-0.585 ± 0.16	0.51 ± 0.15
CCACAGCAAUAUUACGCUGC	-3.06 ± 0.17	-2.72 ± 0.28
GUGUAGCAAUAUUACGGAGC	-1.85 ± 0.56	–
UCUCAGCAAUAUUACGCCAC	0.271 ± 1.2	–
GGGAAGCAAUAUUACGCCAC	–	-2.89 ± 0.74
CGAAAGCAAUAUUACGCGCA	-0.957 ± 0.12	-0.435 ± 0.13
AGAGAGCAAUAUUACGCCGU	-4.4 ± 1	-2.24 ± 0.78
GCGAAGCAAUAUUACGCUCC	-2.79 ± 1.2	-0.681 ± 1.4
CUUGAGCAAUAUUACGGACU	-3.97 ± 0.59	-3.54 ± 0.6
GAAGAGCAAUAUUACGAUAC	–	0.172 ± 0.77
GUUAAGCAAUAUUACGGUGG	-3.52 ± 0.17	-1.78 ± 0.15
CAGGAGCAAUAUUACGCCAA	–	-2.26 ± 0.5

4 entries from above, field by field.
GGGAAGCAAUAUUACGCCAC
  self-splicing fitness (ln) (37 °C) = -2.89 ± 0.74
CGAAAGCAAUAUUACGCGCA
  self-splicing fitness (ln) (30 °C) = -0.957 ± 0.12; self-splicing fitness (ln) (37 °C) = -0.435 ± 0.13
AGAGAGCAAUAUUACGCCGU
  self-splicing fitness (ln) (30 °C) = -4.4 ± 1; self-splicing fitness (ln) (37 °C) = -2.24 ± 0.78
GCGAAGCAAUAUUACGCUCC
  self-splicing fitness (ln) (30 °C) = -2.79 ± 1.2; self-splicing fitness (ln) (37 °C) = -0.681 ± 1.4

Continued.

Sequence	self-splicing fitness (ln) (30 °C)	self-splicing fitness (ln) (37 °C)
GAAUAGCAAUAUUACGCCAU	-3.06 ± 0.56	–
GUUCAGCAAUAUUACGUCCC	-0.868 ± 1.4	–
GGACAGCAAUAUUACGUAUG	-1.13 ± 0.073	-0.419 ± 0.08
UUUGAGCAAUAUUACGUCCG	-1.4 ± 1.2	–
UGUUAGCAAUAUUACGCAGC	-3.09 ± 0.53	–
CAGAAGCAAUAUUACGGGAC	-4.14 ± 0.72	–
UUAGAGCAAUAUUACGAGUC	-2.61 ± 0.57	–
GGGGAGCAAUAUUACGGUAU	-2.97 ± 0.75	–
AACUAGCAAUAUUACGUAAU	-1.82 ± 0.098	-0.948 ± 0.099
UCCAAGCAAUAUUACGAGAC	-4.46 ± 1	–
UUCUAGCAAUAUUACGAGUC	-3.6 ± 1	–
GCUCAGCAAUAUUACGGAGC	-3.94 ± 0.51	–
AAUUAGCAAUAUUACGCUGC	-3.63 ± 1	–
UUUGAGCAAUAUUACGUGAU	–	-3.47 ± 0.59
ACCGAGCAAUAUUACGGCAG	–	-3.9 ± 0.72
CUACAGCAAUAUUACGGUGC	-4.58 ± 0.28	-2 ± 0.17
UCAAAGCAAUAUUACGAAUC	-4.56 ± 0.72	–
UUGGAGCAAUAUUACGUAGG	-3.11 ± 0.23	-1.86 ± 0.15
CGUUAGCAAUAUUACGCUAC	–	-2.91 ± 0.75
AGCGAGCAAUAUUACGGGGC	-4.34 ± 0.52	-2.59 ± 0.76
GUUCAGCAAUAUUACGUCAC	-1.78 ± 0.17	-1.27 ± 0.17
GAUUAGCAAUAUUACGCAGG	-2.54 ± 0.65	–
